Measurements: publication PMC5430426
No constants are given. Whether binding was seen depends on the method and setting. Some binding calls cover weakened binding; strength is not graded here.

Target: T1, Ubiquinol-cytochrome-c reductase complex core protein 1 (mouse (endogenous in liver)) (UniProt Q9CZ13)
T1 sequence: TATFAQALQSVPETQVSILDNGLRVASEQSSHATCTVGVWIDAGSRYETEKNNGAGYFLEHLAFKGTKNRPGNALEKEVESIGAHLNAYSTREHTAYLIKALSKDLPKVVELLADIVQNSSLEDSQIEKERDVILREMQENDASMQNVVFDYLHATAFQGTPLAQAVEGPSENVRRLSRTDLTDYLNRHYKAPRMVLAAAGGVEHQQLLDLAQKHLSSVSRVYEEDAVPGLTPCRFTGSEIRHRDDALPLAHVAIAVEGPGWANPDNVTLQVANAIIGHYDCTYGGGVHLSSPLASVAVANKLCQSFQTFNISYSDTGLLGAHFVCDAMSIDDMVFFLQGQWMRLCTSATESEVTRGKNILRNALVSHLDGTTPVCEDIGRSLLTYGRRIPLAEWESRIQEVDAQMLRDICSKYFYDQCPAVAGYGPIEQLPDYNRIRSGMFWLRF
Test: native gel or EMSA; blue native polyacrylamide gel electrophoresis of digitonin-solubilized isolated liver mitochondria (P95 mice, wild type and Bcs1l G/G, control or ketogenic diet), then immunoblotting of intact complexes and supercomplexes

binding: binds
B1: Rieske iron-sulfur protein (protein, UniProt Q9CR68 79-274)
chain: SHTDVKVPDFSDYRRAEVLDSTKSSKESSEARKGFSYLVTATTTVGVAYAAKNVVSQFVSSMSASADVLAMSKIEIKLSDIPEGKNMAFKWRGKPLFVRHRTKKEIDQEAAVEVSQLRDPQHDLDRVKKPEWVILIGVCTHLGCVPIANAGDFGGYYCPCHGSHYDASGRIRKGPAPLNLEVPAYEFTSDDVVVVG
